Experimental findings from publication PMC10445730 are described below.

The experiment has as its target V5-tagged full-length SMRTER (Drosophila). Kind of experiment: co-IP; S2 cells co-transfected with HA-tagged HDAC3 and V5-tagged Smr; V5 antibody with protein A/G magnetic beads; blot probed with HA antibody.

Residue numbers refer to the chain shown, from its start. In names and notes the source's numbering stands. No constants are given. Whether binding was seen depends on the method and setting. Binding seen in cells or lysates may run through a third protein. Binding can be weak; no strength is given. Sequences can lack the tags named with a protein.

B1: HA-tagged wild-type Drosophila HDAC3 (enzyme, UniProt Q7KTS4 1-438)
chain: MTDRRVSYFYNADVGNFHYGAGHPMKPQRLAVTHSLVMNYGLHKKMKIYRPYKASAQDMLRFHSDEYIAYLQQVTPQNIQCNSVAYTKYLAHFSVGEDCPVFDGLFDFCAMYTGASLEGAQKLNHNHSDICINWSGGLHHAKKFEASGFCYVNDIVIGILELLKYHPRVLYIDIDVHHGDGVQEAFYLTDRVMTASFHKYGNYFFPGTGDMYEIGAESGRYYSVNVPLKEGIDDQSYFQVFKPIISAIMDFYRPTAIVLQCGADSLAGDRLGCFSLSTKGHGECVKFVKELNVPTLVVGGGGYTLRNVARCWTHETSLLVDQDIENDLPATEYYDFFAPDFTLHPEINSRQDNANSKQYLELIVKHVYENLKMCQHSPSVQMVQTPPDVDLEELRSNREEASDPDVRISVADEDKLVDAKNEFYDGDQDQDKPDSAES
As for B1, the binding result is given as “binds”.

B2: HA-tagged Drosophila HDAC3 K26A (enzyme, UniProt Q7KTS4 1-438)
chain: B1 chain with K26A
For B2, the binding entry is given as “binds”.

B3: HA-tagged Drosophila HDAC3 Y303F (enzyme, UniProt Q7KTS4 1-438)
chain: B1 chain with Y303F
As to B3, the binding result is on record as “binds”.
